Results: article PMC5458344
Results are given in words; binding and its absence hold for the method and conditions named. Binding seen in cells or lysates may run through a third protein. A result given as binding can be weak or reduced; the word gives no strength. Where a sequence is shown, tags or fusion partners need not be part of it.

Target: T1, GST-emerin (amino acids 1–176, lacking the TM domain) (UniProt P50402)
T1 sequence: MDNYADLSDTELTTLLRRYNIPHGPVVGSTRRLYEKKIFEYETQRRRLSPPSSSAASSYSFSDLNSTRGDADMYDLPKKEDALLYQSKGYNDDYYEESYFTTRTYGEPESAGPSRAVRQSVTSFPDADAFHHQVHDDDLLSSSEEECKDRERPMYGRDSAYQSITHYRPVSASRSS
Experiment: pull-down; reverse: GST-lamin A (356–665) or GST-emerin (1–176) on glutathione-Sepharose beads; lysates of U2OS cells transfected with GFP-nesprin-1α2 WT or mutants; 16 h at 4 °C; Western blot, densitometry as ratio to WT; only the target purified

Substance | binding
GFP-tagged nesprin-1α2 N8406K (human) | binds
GFP-tagged nesprin-1α2 WT (human) | binds
GFP-tagged nesprin-1α2 R8272Q (human) | binds
GFP-tagged nesprin-1α2 S8381C (human) | binds
